The source of these data is paper PMC10897455.

In assay [1] the target is T1, TMEM25-ΔECR (residues 225–366), FLAG-tagged, in HEK293 cells (human) (UniProt Q86YD3).
T1 sequence: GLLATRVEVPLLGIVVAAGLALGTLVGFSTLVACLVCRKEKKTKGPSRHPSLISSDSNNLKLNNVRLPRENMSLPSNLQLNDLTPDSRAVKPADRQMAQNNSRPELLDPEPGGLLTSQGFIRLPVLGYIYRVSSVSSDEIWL
Briefly: co-IP; cis: HEK293T cells co-transfected with two tagged proteins, cultured at low density; lysis in 150 mM NaCl, 4 mM EDTA, 10% glycerol, 0.5% Triton X-100, 50 mM Tris-HCl pH 7.5, 1 mM DTT; anti-FLAG (M2) or anti-HA (3F10) on protein G-Sepharose; immunoblot.

Assay [2] has as its target T2, TMEM25-ΔICR (residues 27–268), FLAG-tagged, in HEK293 cells (human) (UniProt Q86YD3).
T2 sequence: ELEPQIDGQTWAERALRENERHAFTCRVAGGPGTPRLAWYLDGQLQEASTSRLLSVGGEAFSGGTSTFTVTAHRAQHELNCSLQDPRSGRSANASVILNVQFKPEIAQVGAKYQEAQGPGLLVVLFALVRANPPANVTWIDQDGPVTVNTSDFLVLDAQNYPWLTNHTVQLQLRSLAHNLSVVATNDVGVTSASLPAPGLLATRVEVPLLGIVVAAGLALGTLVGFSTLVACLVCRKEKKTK
Described as above.

The target in assay [3] is T3, TM-JAM chimera (TMEM25 with its transmembrane segment replaced by that of JAM-A), FLAG-tagged (human) (UniProt Q86YD3+Q9Y624).
T3 sequence: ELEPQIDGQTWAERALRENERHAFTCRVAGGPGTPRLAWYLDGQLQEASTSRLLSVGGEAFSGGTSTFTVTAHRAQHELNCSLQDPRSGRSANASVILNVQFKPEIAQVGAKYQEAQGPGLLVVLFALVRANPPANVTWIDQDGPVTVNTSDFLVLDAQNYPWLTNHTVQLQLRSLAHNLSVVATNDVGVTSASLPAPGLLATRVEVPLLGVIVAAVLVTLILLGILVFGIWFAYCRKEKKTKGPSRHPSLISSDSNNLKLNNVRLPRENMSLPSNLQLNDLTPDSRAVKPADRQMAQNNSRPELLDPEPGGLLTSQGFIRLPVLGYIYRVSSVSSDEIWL
Described as above.

Assay [4] concerns the target T4, TMEM25-NQ (N106Q/N119Q/N162Q/N175Q/N192Q/N205Q), FLAG- or HA-tagged, in HEK293 cells (human) (UniProt Q86YD3).
T4 sequence: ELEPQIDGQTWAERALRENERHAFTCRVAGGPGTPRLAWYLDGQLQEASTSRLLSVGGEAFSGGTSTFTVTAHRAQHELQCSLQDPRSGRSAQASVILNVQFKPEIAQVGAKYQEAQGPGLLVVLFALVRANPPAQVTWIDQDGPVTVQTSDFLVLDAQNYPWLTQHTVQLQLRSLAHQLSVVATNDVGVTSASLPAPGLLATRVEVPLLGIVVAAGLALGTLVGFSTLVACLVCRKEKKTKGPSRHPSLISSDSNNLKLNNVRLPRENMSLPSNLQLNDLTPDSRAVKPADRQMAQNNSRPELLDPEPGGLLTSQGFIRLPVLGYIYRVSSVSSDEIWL
The assay is described as above.

The target in assay [5] is T5, TMEM25-FL (residues 27–366), N-terminally FLAG- or HA-tagged, in HEK293 cells (human) (UniProt Q86YD3).
T5 sequence (chain, N-glycosylated (complex-type and high-mannose-type N-glycans)): T4 sequence with Q80N, Q93N, Q136N, Q149N, Q166N, Q179N
The assay is described as above.

In assay [6] the target is T6, claudin-2 (residues 1–230), FLAG- or Myc-tagged, in HEK293 cells (human), P57739.
T6 chain: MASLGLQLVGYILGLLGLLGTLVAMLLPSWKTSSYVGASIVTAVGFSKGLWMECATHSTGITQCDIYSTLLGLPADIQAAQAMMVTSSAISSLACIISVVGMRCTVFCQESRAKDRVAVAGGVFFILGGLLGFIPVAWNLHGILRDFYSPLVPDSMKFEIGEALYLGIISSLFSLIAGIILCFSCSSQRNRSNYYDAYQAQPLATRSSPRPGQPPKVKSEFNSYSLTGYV
Briefly: co-IP; cis, with or without a co-expressed third protein: HEK293T cells triply transfected (HA–TMEM25, HA–JAM-A or Myc–Par3 as third protein), low density; anti-FLAG or anti-HA precipitation; immunoblot, band ratios. Particulars: remark: other sources report otherwise. A general note: In western blotting, separated proteins are transferred to a membrane and probed.

The target in assay [7] is JAM-A (residues 28–299), N-terminally FLAG- or HA-tagged, in HEK293 cells (human) (UniProt Q9Y624). Briefly: co-IP; cis: HEK293T cells co-transfected with two tagged proteins, cultured at low density; lysis in 150 mM NaCl, 4 mM EDTA, 10% glycerol, 0.5% Triton X-100, 50 mM Tris-HCl pH 7.5, 1 mM DTT; anti-FLAG (M2) or anti-HA (3F10) on protein G-Sepharose; immunoblot.
The target is the same in assay [8]. Briefly: co-IP; trans: HEK293T cells expressing one tagged protein co-cultured to confluency with HEK293T cells expressing the other; lysate precipitated with anti-FLAG antibody; immunoblot.

Residue numbers refer to the chain shown, from its start. Names and notes keep the numbering of the source. Results are given in words; binding and its absence hold for the method and conditions named. In cells and extracts the contact can be indirect. Some binding calls cover weakened binding; strength is not graded here. Where a sequence is shown, tags or fusion partners need not be part of it.

B1: TMEM25-FL (residues 27–366), N-terminally FLAG- or HA-tagged, in HEK293 cells (protein, UniProt Q86YD3 27-366)
chain: T4 sequence with Q80N, Q93N, Q136N, Q149N, Q166N, Q179N
modifications: N-glycosylated (complex-type and high-mannose-type N-glycans)
For B1, the binding result in assay [1], in assay [2] and in assay [3] was “binds” throughout.

B2: TMEM25-NQ (N106Q/N119Q/N162Q/N175Q/N192Q/N205Q), FLAG- or HA-tagged, in HEK293 cells (protein, UniProt Q86YD3 27-366)
chain: T4 sequence
As to B2, the binding result in assay [4] was “binds”.

B3: claudin-2 (residues 1–230), FLAG- or Myc-tagged, in HEK293 cells (protein, UniProt P57739 1-230)
chain: T6 chain
B3: in assay [5], the binding entry is given as “binds”.

B4: claudin-2 (residues 1–230), FLAG- or Myc-tagged, in HEK293 cells, P57739 1-230 (protein)
chain: T6 chain
Turning to B4, in assay [6], the binding entry was “binds”.

B5: JAM-A (residues 28–299), N-terminally FLAG- or HA-tagged, in HEK293 cells (protein, UniProt Q9Y624 28-299)
chain: SVTVHSSEPEVRIPENNPVKLSCAYSGFSSPRVEWKFDQGDTTRLVCYNNKITASYEDRVTFLPTGITFKSVTREDTGTYTCMVSEEGGNSYGEVKVKLIVLVPPSKPTVNIPSSATIGNRAVLTCSEQDGSPPSEYTWFKDGIVMPTNPKSTRAFSNSSYVLNPTTGELVFDPLSASDTGEYSCEARNGYGTPMTSNAVRMEAVERNVGVIVAAVLVTLILLGILVFGIWFAYSRGHFDRTKKGTSSKKVIYSQPSARSEGEFKQTSSFLV
In the case of B5, the figures for the binding entry in assay [7], in assay [5] and in assay [8] were “binds”, “no binding” and “binds”, respectively.

B6: claudin-15 (residues 1–228), FLAG-tagged, in HEK293 cells (protein, UniProt P56746 1-228)
chain: MSMAVETFGFFMATVGLLMLGVTLPNSYWRVSTVHGNVITTNTIFENLWFSCATDSLGVYNCWEFPSMLALSGYIQACRALMITAILLGFLGLLLGIAGLRCTNIGGLELSRKAKLAATAGALHILAGICGMVAISWYAFNITRDFFDPLYPGTKYELGPALYLGWSASLISILGGLCLCSACCCGSDEDPAASARRPYQAPVSVMPVATSDQEGDSSFGKYGRNAYV
For the molecule B6, the binding result in assay [5] was “no binding”.

B7: occludin (residues 1–522), FLAG- or Myc-tagged, in HEK293 cells (protein, UniProt Q16625 1-522)
chain: MSSRPLESPPPYRPDEFKPNHYAPSNDIYGGEMHVRPMLSQPAYSFYPEDEILHFYKWTSPPGVIRILSMLIIVMCIAIFACVASTLAWDRGYGTSLLGGSVGYPYGGSGFGSYGSGYGYGYGYGYGYGGYTDPRAAKGFMLAMAAFCFIAALVIFVTSVIRSEMSRTRRYYLSVIIVSAILGIMVFIATIVYIMGVNPTAQSSGSLYGSQIYALCNQFYTPAATGLYVDQYLYHYCVVDPQEAIAIVLGFMIIVAFALIIFFAVKTRRKMDRYDKSNILWDKEHIYDEQPPNVEEWVKNVSAGTQDVPSPPSDYVERVDSPMAYSSNGKVNDKRFYPESSYKSTPVPEVVQELPLTSPVDDFRQPRYSSGGNFETPSKRAPAKGRAGRSKRTEQDHYETDYTTGGESCDELEEDWIREYPPITSDQQRQLYKRNFDTGLQEYKSLQSELDEINKELSRLDKELDDYREESEEYMAAADEYNRLKQVKGSADYKSKKNHCKQLKSKLSHIKKMVGDYDRQKT
For B7, the binding result in assay [5] was “no binding”.
